Assay results as given in PMC11421797.
Results are given in words; binding and its absence hold for the method and conditions named. Binding seen in cells or lysates may run through a third protein. Some entries that bind do so weakly or less than the wild type. For some assays here: Tags and fused reporters may be left off the sequences shown.

The chains behind the UniProt entries cited, without tags or fusion partners.
UniProt O14744: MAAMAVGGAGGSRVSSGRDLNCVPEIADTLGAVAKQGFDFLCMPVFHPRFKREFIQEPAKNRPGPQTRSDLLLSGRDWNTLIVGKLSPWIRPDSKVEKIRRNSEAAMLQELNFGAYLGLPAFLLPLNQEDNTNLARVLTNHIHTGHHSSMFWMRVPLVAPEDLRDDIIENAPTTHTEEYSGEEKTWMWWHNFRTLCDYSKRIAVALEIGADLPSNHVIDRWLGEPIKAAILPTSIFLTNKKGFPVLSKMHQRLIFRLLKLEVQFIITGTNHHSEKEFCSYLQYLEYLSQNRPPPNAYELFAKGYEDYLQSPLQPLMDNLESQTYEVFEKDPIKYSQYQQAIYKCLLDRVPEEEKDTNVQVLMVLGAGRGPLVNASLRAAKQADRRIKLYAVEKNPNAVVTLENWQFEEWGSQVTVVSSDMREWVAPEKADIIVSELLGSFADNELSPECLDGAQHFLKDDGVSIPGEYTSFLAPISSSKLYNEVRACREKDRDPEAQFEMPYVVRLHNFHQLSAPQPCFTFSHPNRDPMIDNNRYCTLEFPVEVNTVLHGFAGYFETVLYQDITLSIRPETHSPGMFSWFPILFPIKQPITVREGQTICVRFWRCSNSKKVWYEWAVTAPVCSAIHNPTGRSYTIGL
UniProt Q9BQA1: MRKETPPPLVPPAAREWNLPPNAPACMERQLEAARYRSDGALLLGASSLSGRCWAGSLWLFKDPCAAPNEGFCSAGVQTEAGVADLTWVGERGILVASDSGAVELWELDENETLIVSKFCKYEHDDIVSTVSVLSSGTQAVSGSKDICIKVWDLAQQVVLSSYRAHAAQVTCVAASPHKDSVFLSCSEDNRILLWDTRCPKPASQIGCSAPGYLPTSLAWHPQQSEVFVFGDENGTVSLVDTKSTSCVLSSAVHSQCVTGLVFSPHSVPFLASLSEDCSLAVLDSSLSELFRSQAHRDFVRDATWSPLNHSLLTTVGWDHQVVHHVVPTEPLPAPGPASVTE

Experiments:
[1] = target: T1, GST-fused KSHV vCyclin (Kaposi's sarcoma-associated herpesvirus (KSHV BAC16)) (UniProt Q77Q36); assay: pull-down; purified GST or GST-vCyclin on glutathione beads incubated with in vitro translated PRMT5 overnight; washed four times with RIPA buffer; western blotting; only the target purified
T1 sequence: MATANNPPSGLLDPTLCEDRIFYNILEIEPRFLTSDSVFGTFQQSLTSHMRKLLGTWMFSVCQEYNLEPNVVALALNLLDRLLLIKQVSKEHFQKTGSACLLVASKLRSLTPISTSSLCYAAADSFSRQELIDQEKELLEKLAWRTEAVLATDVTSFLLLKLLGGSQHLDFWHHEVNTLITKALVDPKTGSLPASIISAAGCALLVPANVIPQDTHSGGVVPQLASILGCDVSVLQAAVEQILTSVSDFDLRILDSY

[2] = target: T2, HA-tagged KSHV vCyclin (Kaposi's sarcoma-associated herpesvirus (KSHV BAC16)) (UniProt Q77Q36); assay: co-IP; HEK293T cells cotransfected with Flag- and HA-tagged plasmids; lysed 48 h after transfection in Western and IP lysis buffer; IP with anti-HA antibodies, immunoblot
T2 sequence: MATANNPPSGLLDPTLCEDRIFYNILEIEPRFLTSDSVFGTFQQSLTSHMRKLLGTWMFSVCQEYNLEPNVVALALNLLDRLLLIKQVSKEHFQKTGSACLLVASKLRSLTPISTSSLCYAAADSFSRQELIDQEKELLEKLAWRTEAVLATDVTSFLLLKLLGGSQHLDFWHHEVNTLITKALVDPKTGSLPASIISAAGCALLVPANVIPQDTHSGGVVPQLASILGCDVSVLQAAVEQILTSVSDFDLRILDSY

[3] = target: HA-tagged protein arginine methyltransferase 5 (human) (UniProt O14744); assay: as above
[4] = target: HA-tagged methylosome protein 50 (human) (UniProt Q9BQA1); assay: as above
[5] = target: endogenous protein arginine methyltransferase 5 (human (endogenous in HEK293T, HEK293T.219 and iSLK.RGB)) (UniProt O14744); assay: co-IP; endogenous proteins; iSLK.RGB cell lysates immunoprecipitated with anti-PRMT5 antibody or rabbit IgG control, immunoblot

in vitro translated PRMT5 (from UniProt O14744 1-637) (enzyme)
binding [1]: binds

Flag-tagged protein arginine methyltransferase 5 (from UniProt O14744 1-637) (enzyme)
binding [2]: binds

B1: Flag-tagged KSHV vCyclin (protein, UniProt Q77Q36 1-257)
chain: MATANNPPSGLLDPTLCEDRIFYNILEIEPRFLTSDSVFGTFQQSLTSHMRKLLGTWMFSVCQEYNLEPNVVALALNLLDRLLLIKQVSKEHFQKTGSACLLVASKLRSLTPISTSSLCYAAADSFSRQELIDQEKELLEKLAWRTEAVLATDVTSFLLLKLLGGSQHLDFWHHEVNTLITKALVDPKTGSLPASIISAAGCALLVPANVIPQDTHSGGVVPQLASILGCDVSVLQAAVEQILTSVSDFDLRILDSY
binding [3]: binds
binding [4]: binds

B2: endogenous KSHV vCyclin (protein, UniProt Q77Q36 1-257)
chain: MATANNPPSGLLDPTLCEDRIFYNILEIEPRFLTSDSVFGTFQQSLTSHMRKLLGTWMFSVCQEYNLEPNVVALALNLLDRLLLIKQVSKEHFQKTGSACLLVASKLRSLTPISTSSLCYAAADSFSRQELIDQEKELLEKLAWRTEAVLATDVTSFLLLKLLGGSQHLDFWHHEVNTLITKALVDPKTGSLPASIISAAGCALLVPANVIPQDTHSGGVVPQLASILGCDVSVLQAAVEQILTSVSDFDLRILDSY
binding [5]: binds
